The whole screen tested about 320,000 compounds, of which about 740 (0.23%) were called active. This list was built around the results that the source calls inconclusive (neither active nor inactive); the mix of calls is not that of the screen. Calls follow the shape of the dose curve; as a rule, active = well fitted activation curve with a large enough effect; inconclusive = small, poorly fitted or top-dose-only effect; inactive = no such curve, though single readings can be large or run the other way. Potencies of inconclusive entries are doubtful fits and often do not repeat.
Test: qHTS Assay for Small Molecule Inhibitors of Mitochondrial Division or Activators of Mitochondrial Fusion; also: nearly all actives have a fitted effect of over 45% in size;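 as to growth rescue (activation): temperature-sensitive fusion mutants such as fzo1-1 at 37 °C on non-fermentable ethanol glycerol medium; % of control where 0% means no effect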
Details: S. cerevisiae fusion-defective mutant growth rescue, CellTiterGlo 48 h; growth rescue (activation): at 46.1 µM (top of the series) unless noted
Procedure, shortened: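 Compounds are tested for their ability to restore growth of mitochondrial fusion-defective yeast strains at non-permissive 37C in YPEG medium over 48 hours. Viability is quantified by luciferase luminescence.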
Potency is read from the fitted curve at half-maximal effect.

SMILES | growth rescue (activation) | Potency
CCC1CCC(C(=O)NC(C(=O)NCCCN2CCCCC2C)C(C)C)CC1 (configuration not stated) | inactive: 7.69% | –
CC(=O)Oc1ccc(/C=C2/SC(=S)N(Cc3ccccc3)C2=O)cc1 | – | inconclusive: 0.631 µM [activator, full curve, poor fit]
Cc1cc(C)cc(NC(=O)c2ccc(Cn3nc(C)c(Cl)c3C)o2)c1 | – | inconclusive: 25.1 µM [activator, single point]
O=C(Cc1c(Cl)cccc1Cl)NCCc1ccc(Cl)cc1 | – | inconclusive: 17.8 µM [activator, single point]
COc1cc(CC2COC(c3ccc(O)c(OC)c3)C2COC(C)=O)ccc1O (configuration not stated) | inactive: 3.35% | –
COc1ccc(CCCc2nnc(SCc3nc4ccccc4c(=O)[nH]3)n2C)cc1C | – | inconclusive: 35.5 µM [activator, single point]
Cc1cc(C)nc(N2CCC(C(=O)N3CCN(c4cc(Cl)ccc4C)CC3)CC2)n1 | – | inconclusive: 17.8 µM [activator, single point]
Cc1ccc(Oc2ncccc2C(=O)NC2CCSC2=O)cc1 (configuration not stated) | – | inconclusive: 5.62 µM [activator, single point]
CCc1ccc(-c2cc(-c3n[nH]c(=S)n3CC)c3ccccc3n2)cc1 | – | inconclusive: 31.6 µM [activator, single point]
CCOC(=O)c1c(-c2ccccc2)oc2cc(Br)c(O)c(C=O)c12 | – | inconclusive: 12.6 µM [activator, partial curve]
CCCCOC(=O)c1ccc(NC(=O)c2ccccc2OC)cc1 | – | inconclusive: 31.6 µM [activator, single point]
CCCNS(=O)(=O)c1cccc(C(=O)OCc2cc(=O)oc3cc(OC)ccc23)c1 | – | inconclusive: 11.2 µM [activator, partial curve]
Fc1ccc2[nH]c3c(c2c1)CN(C(=S)NCc1ccccc1)CC3 | – | inconclusive: 17.8 µM [activator, single point]
CN(C)c1ccc2c(c1)Sc1cc(N(C)C)ccc1N2C(=O)c1ccccc1 | – | inconclusive: 10 µM [activator, partial curve]
CC(=O)C1=C(C)NC(SCc2cccc3ccccc23)=C(C#N)C1c1ccco1 (configuration not stated) | – | inconclusive: 31.6 µM [activator, single point]
CCOC(=O)c1cc2c(=O)n3ccccc3nc2n(Cc2ccco2)c1=NC(=O)c1ccc(OC)cc1OC | – | inconclusive: 35.5 µM [activator, single point]
CCCCC[C@H](CC(=O)NO)C(=O)N[C@H](C(=O)N1CCC[C@H]1CO)C(C)C | – | inconclusive: 18.4 µM [activator, single point]
O=S(=O)(Nc1ccc(-c2nc3cccnc3s2)cc1)c1ccc(Cl)s1 | – | inconclusive: 14.1 µM [activator, single point]
CC1CCN(S(=O)C23CC4CC(CC(C4)C2)C3)CC1 (configuration not stated) | – | inconclusive: 14.1 µM [activator, partial curve]
CN(C)c1nc(=NCc2ccco2)ss1 | inactive: -11.3% | –
O=C(Nc1cccc(NC(=O)c2ccc(-c3ccc(Br)cc3)o2)c1)c1ccccc1 | inactive: -3.68% | –

Filtered by structure: the compounds so far with a Cl atom (four)
SMILES | growth rescue (activation) | Potency
Cc1cc(C)cc(NC(=O)c2ccc(Cn3nc(C)c(Cl)c3C)o2)c1 | – | inconclusive: 25.1 µM [activator, single point]
O=C(Cc1c(Cl)cccc1Cl)NCCc1ccc(Cl)cc1 | – | inconclusive: 17.8 µM [activator, single point]
Cc1cc(C)nc(N2CCC(C(=O)N3CCN(c4cc(Cl)ccc4C)CC3)CC2)n1 | – | inconclusive: 17.8 µM [activator, single point]
O=S(=O)(Nc1ccc(-c2nc3cccnc3s2)cc1)c1ccc(Cl)s1 | – | inconclusive: 14.1 µM [activator, single point]

Continued:

SMILES | growth rescue (activation) | Potency
Cn1nccc1-c1cc(Cl)cc(Cl)c1O | inactive: -3.04% | –
Cc1ccc(C)c(N2CCN(C(=O)c3nn(C)c4c3CS(=O)(=O)c3ccccc3-4)CC2)c1 | – | inconclusive: 11.2 µM [activator, partial curve]
CCOC(=O)C1NN=C(C(=O)c2ccc(C)cc2)C1c1ccc(C)cc1 (configuration not stated) | – | inconclusive: 17.8 µM [activator, single point]
N#CCCn1nc(-c2ccc(Br)cc2)cc1Nc1ccccc1NC(=O)C(F)(F)F | – | inconclusive: 31.6 µM [activator, single point]
O=C(CSc1ccccn1)Nc1ccc2c(c1)C(=O)c1ccccc1C2=O | inactive: -8.83% | –
Cc1nc(-c2cccc(NC(=O)c3ccc(-n4nccc4C)cc3)c2)cs1 | – | inconclusive: 22.4 µM [activator, single point]
Cc1ccccc1-n1c(C)cc(/C=C(\C#N)C(=O)NCC2CCCO2)c1C (configuration not stated) | inactive: 24.1% | –
CC(NC(=O)c1cccs1)C(c1cccs1)N1CCN(c2ccccc2)CC1 (configuration not stated) | – | inconclusive: 15.8 µM [activator, single point]
O=C(Nc1ccccn1)C1CCN(c2ncnc3c2nc2n3CCCCC2)CC1 | – | inconclusive: 3.16 µM [activator, partial curve]
N#C/C(=C/c1ccc(O)c([N+](=O)[O-])c1)C(=O)Nc1ccccc1 | – | inconclusive: 15.8 µM [activator, single point]
O=c1cc(-c2ccccc2Cl)oc2ccc([N+](=O)[O-])c(O)c12 | – | inconclusive: 3.55 µM [activator, partial curve]
CN(C)c1cc[n+](CC(=O)Nc2ccc(OC(F)F)cc2)cc1 | inactive: -12.3% | –
CCc1cc2c3c(c(=O)oc2cc1OC)CCCC3 | – | inconclusive: 22.4 µM [activator, single point]
CCOC(=O)c1ccccc1NC(=O)C1COc2ccccc2O1 (configuration not stated) | – | inconclusive: 25.1 µM [activator, partial curve]
CCCc1ccc(-c2ccc(/C=C/C(=O)O)cc2)nc1 | – | inconclusive: 12.6 µM [activator, partial curve]
Cc1sc2ncnc(N3CCC(C(=O)Nc4ccc(Cl)cc4Cl)CC3)c2c1C | – | inconclusive: 11.2 µM [activator, partial curve]
C=CCNC(=S)N/N=C/c1ccc(N(CC)Cc2ccccc2)cc1 | – | inconclusive: 15.8 µM [activator, partial curve]
Cc1cccc(Nc2nc(-c3ccc(F)c(C)c3)cs2)n1 | – | inconclusive: 0.562 µM [activator, full curve, poor fit]
C[C@@H]1CC[C@@]23COC(=O)C2=CCC[C@@H]3[C@@]1(C)CC/C(=C/CO)CO | – | inconclusive: 35.5 µM [activator, single point]
O=C1CCCc2ccccc2N1Cc1ccc(Cl)cc1Cl | – | inconclusive: 17.8 µM [activator, single point]
Cc1noc(/C=C/c2ccco2)c1S(=O)(=O)N1CCC(C(=O)N2CCc3ccccc3C2)CC1 | inactive: 1.07% | –

— PubChem BioAssay AID485298 (National Center for Advancing Translational Sciences (NCATS), 2010)
